# Source: ChEMBL document CHEMBL1150033, “The squalestatins: effects of changes at the allylic centre in the C1 sidechain” (Bioorg Med Chem Lett, 1994)
# Molecular target: T1, Squalene synthase (Rattus norvegicus, UniProt Q02769)
# T1 sequence (Q02769 whole entry): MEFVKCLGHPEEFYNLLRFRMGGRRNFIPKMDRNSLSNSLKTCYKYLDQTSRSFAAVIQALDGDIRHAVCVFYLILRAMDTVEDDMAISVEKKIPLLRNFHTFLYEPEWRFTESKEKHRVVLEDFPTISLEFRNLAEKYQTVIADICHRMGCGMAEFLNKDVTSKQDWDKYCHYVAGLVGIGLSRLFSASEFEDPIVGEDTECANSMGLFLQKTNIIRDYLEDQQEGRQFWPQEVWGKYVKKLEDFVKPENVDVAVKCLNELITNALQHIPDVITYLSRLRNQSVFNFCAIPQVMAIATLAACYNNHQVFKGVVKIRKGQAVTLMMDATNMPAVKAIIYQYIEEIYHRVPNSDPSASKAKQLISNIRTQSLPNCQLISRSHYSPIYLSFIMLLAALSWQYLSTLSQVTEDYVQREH
# Test: Inhibitory concentration against mammalian Squalene synthase
compound,measurement,value
C=C(CC[C@]12O[C@H](C(=O)O)[C@@](O)(C(=O)O)[C@](C(=O)O)(O1)[C@H](O)[C@H]2O)[C@@H](OC(C)=O)[C@H](C)Cc1ccccc1,IC50,26 nM
